{"source": "paper PMC13469816", "target": "T1, C/EBPβ (UniProt P28033)", "T1 sequence (looked up, limits assumed)": "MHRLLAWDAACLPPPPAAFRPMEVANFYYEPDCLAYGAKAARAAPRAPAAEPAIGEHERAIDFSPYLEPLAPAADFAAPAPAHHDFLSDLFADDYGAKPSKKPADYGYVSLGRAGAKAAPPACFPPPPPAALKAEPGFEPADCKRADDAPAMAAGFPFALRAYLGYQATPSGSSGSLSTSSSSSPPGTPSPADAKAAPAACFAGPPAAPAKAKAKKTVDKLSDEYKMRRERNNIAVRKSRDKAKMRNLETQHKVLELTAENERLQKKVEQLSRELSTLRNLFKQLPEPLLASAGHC", "assay": "EMSA", "conditions": "nuclear extract, UPF1 knockdown raises homodimer species 8-fold; EMSA: conditions as previously described (not given); protein in an extract; label: 32P", "note": "For at least one entry, the source does not settle the construct or the ends of the probe. Where cells or extracts were used, other partners may take part. At least one verdict rests on a figure or table, not on a statement of the authors. Protein sequences can lack the tags named with them.", "data": [{"sequence": "GATCCATATCCCTGATTGCGCAATAGGCTCAAAA (double strand) [C/EBP consensus EMSA probe]", "values": [{"measurement": "binding result", "result": "binds"}]}]}
